Data taken from patent US20040198651A1, “Secreted proteins” (priority 2001, published 2004).
At least one structure is not confirmed: it was looked up by name or label, or the drawing left a doubt. Some results were stated once for a whole list of compounds, not compound by compound.

Experiments:
[1] = tested on: SECP (SEQ ID NO:34) expression in C3A liver cell line; test: Microarray expression profiling of steroid-treated human liver C3A cells; type: cell-based; settings: C3A liver cell line treated with steroid at 1 μM, 10 μM, and 100 μM for 1, 3, and 6 hours; versus untreated C3A cells
[2] = cited from earlier work

| Compound | SECP expression (SEQ ID NO:34) up-regulated [1] | more potent than hydrocortisone ([2]; relative to hydrocortisone) | more potent than prednisone ([2]; relative to prednisone) |
| --- | --- | --- | --- |
| C[C@H]1C[C@H]2[C@@H]3CCC4=CC(=O)C=C[C@]4(C)[C@@]3(Cl)[C@@H](O)C[C@]2(C)[C@@]1(O)C(=O)CO [beclomethasone] | at least 2.5 fold | – | – |
| C[C@H]1C[C@H]2[C@@H]3CCC4=CC(=O)C=C[C@]4(C)[C@@]3(F)[C@@H](O)C[C@]2(C)[C@@]1(O)C(=O)CO [betamethas one, betamethasone] | at least 2.5 fold | – | – |
| C[C@@H]1C[C@H]2[C@@H]3CCC4=CC(=O)C=C[C@]4(C)[C@@]3(F)[C@@H](O)C[C@]2(C)[C@@]1(O)C(=O)CO [dexamethasone] | at least 2.5 fold | 20-30 times | 5-7 times |
| C[C@]12C=CC(=O)C=C1CC[C@@H]1[C@@H]2C(=O)C[C@@]2(C)[C@H]1CC[C@]2(O)C(=O)CO [prednisone] | at least 2.5 fold | – | – |
